Test results: paper PMC11170731
Results are given in words; binding and its absence hold for the method and conditions named. In cells and extracts the contact can be indirect. Some results given as binding are weak or reduced against the parent protein; the word gives no strength. Where a sequence is shown, tags or fusion partners need not be part of it.

Target: T1, MORF-tagged wild-type Trm734 (S. cerevisiae) (UniProt Q08924)
T1 sequence: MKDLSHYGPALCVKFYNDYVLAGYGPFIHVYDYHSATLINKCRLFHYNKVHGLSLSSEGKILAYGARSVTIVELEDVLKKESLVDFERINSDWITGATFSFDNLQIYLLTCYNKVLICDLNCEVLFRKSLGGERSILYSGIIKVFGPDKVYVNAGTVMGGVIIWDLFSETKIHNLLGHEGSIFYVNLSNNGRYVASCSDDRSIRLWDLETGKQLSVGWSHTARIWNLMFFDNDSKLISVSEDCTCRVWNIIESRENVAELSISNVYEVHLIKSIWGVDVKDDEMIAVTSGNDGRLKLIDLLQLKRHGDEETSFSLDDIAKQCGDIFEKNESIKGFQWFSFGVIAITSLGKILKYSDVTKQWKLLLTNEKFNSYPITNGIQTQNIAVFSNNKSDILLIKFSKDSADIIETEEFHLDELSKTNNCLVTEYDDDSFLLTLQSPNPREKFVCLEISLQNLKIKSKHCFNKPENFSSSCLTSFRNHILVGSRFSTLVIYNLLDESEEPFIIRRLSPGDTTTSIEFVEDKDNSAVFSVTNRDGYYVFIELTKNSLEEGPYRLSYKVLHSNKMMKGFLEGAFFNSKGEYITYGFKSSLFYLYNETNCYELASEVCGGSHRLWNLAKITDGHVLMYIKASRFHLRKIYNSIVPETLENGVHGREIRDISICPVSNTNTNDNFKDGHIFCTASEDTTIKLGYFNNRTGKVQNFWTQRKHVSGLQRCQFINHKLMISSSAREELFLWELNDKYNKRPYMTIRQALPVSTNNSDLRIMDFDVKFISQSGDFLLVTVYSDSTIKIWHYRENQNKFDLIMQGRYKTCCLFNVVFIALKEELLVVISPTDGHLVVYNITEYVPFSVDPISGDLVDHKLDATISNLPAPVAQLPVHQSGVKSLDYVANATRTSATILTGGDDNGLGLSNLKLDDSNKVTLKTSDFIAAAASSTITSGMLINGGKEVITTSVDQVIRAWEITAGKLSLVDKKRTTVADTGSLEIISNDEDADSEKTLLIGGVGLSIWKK
Assay: co-IP; MORF-tagged Trm734 variants coexpressed with Trm7-9myc in yeast; MORF-tagged proteins purified from crude extracts with IgG-Sepharose beads (bind the ZZ domain), eluted in SDS sample buffer; immunoblot with anti-protein A and anti-c-myc

B1: Trm7-9myc (enzyme, UniProt P38238 1-310)
chain: MGKSSKDKRDLYYRKAKEQGYRARSAFKLLQLNDQFHFLDDPNLKRVVDLCAAPGSWSQVLSRKLFDESPSSDKEDRKIVSVDLQPMSPIPHVTTLQADITHPKTLARILKLFGNEKADFVCSDGAPDVTGLHDLDEYVQQQLIMSALQLTACILKKGGTFVAKIFRGRDIDMLYSQLGYLFDKIVCAKPRSSRGTSLEAFIVCLGYNPPSNWTPKLDVNTSVDEFFQGCFLNKLCISDKLSHWNEEERNIAEFMACGSLQSFDSDATYHDLPSSVAGTSSSLDPVQSPTNPPYKKALELKRSGKLTRSV
binding: binds
